The values below come from publication PMC4793087.

These are yes or no findings as the source states them, for the method shown. Binding seen in cells or lysates may run through a third protein. Some entries that bind do so weakly or less than the wild type. Sequences can lack the tags named with a protein.

The target in this experiment is T1, S. cerevisiae Scc1 (wild type, epitope-tagged) (S. cerevisiae) (UniProt Q12158).
T1 sequence: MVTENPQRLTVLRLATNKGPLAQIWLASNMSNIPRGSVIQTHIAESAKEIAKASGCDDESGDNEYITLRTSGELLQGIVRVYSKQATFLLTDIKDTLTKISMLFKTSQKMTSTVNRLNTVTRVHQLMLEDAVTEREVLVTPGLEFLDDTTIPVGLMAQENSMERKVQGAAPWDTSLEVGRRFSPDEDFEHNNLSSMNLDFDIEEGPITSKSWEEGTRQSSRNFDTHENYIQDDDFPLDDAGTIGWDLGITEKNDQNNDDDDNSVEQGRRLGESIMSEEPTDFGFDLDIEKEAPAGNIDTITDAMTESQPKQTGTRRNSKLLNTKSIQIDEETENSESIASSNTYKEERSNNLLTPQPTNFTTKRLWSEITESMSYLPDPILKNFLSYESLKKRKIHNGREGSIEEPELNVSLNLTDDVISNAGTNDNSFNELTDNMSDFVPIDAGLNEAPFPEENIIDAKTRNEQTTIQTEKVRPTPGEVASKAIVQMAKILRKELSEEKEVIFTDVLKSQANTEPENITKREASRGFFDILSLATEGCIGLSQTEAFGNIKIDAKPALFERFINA
The experiment can be described thus: co-IP; epitope-tagged S. cerevisiae strains, proteins expressed from endogenous promoters; IP of Scc1 with HA epitope-directed antibodies, PK epitopes detected by western blotting. On the technique in general: In western blotting, separated proteins are transferred to a membrane and probed.

B1: S. cerevisiae Pds5 (wild type, epitope-tagged) (protein, UniProt Q04264 1-1277)
chain: MAKGAVTKLKFNSPIISTSDQLISTNELLDRLKALHEELASLDQDNTDLTGLDKYRDALVSRKLLKHKDVGIRAFTACCLSDILRLYAPDAPYTDAQLTDIFKLVLSQFEQLGDQENGYHIQQTYLITKLLEYRSIVLLADLPSSNNLLIELFHIFYDPNKSFPARLFNVIGGILGEVISEFDSVPLEVLRLIFNKFLTYNPNEIPEGLNVTSDCGYEVSLILCDTYSNRMSRHLTKYYSEIIHEATNDDNNSRLLTVVVKLHKLVLRLWETVPELINAVIGFIYHELSSENELFRKEATKLIGQILTSYSDLNFVSTHSDTFKAWISKIADISPDVRVEWTESIPQIIATREDISKELNQALAKTFIDSDPRVRRTSVMIFNKVPVTEIWKNITNKAIYTSLLHLAREKHKEVRELCINTMAKFYSNSLNEIERTYQNKEIWEIIDTIPSTLYNLYYINDLNINEQVDSVIFEYLLPFEPDNDKRVHRLLTVLSHFDKKAFTSFFAFNARQIKISFAISKYIDFSKFLNNQESMSSSQGPIVMNKYNQTLQWLASGLSDSTKAIDALETIKQFNDERIFYLLNACVTNDIPFLTFKNCYNELVSKLQTPGLFKKYNISTGASIMPRDIAKVIQILLFRASPIIYNVSNISVLLNLSNNSDAKQLDLKRRILDDISKVNPTLFKDQIRTLKTIIKDLDDPDAEKNDNLSLEEALKTLYKASKTLKDQVDFDDTFFFTKLYDFAVESKPEITKYATKLIALSPKAEETLKKIKIRILPLDLQKDKYFTSHIIVLMEIFKKFPHVLNDDSTDIISYLIKEVLLSNQVVGDSKKEIDWVEDSLLSDTKYSAIGNKVFTLKLFTNKLRSIAPDVPRDELAESFTEKTMKLFFYLIASGGELISEFNKEFYPTPSNYQTKLRCVAGIQVLKLARISNLNNFIKPSDIIKLINLVEDESLPVRKTFLEQLKDYVANELISIKFLPLVFFTAYEPDVELKTTTKIWINFTFGLKSFKKGTIFERALPRLIHAIAHHPDIVGGLDSEGDAYLNALTTAIDYLLFYFDSIAAQENFSLLYYLSERVKNYQDKLVEDEIDEEEGPQKEEAPKKHRPYGQKMYIIGELSQMILLNLKEKKNWQHSAYPGKLNLPSDLFKPFATVQEAQLSFKTYIPESLTEKIQNNIKAKIGRILHTSQTQRQRLQKRLLAHENNESQKKKKKVHHARSQADDEEGDGDRESDSDDDSYSPSNKNETKKGHENIVMKKLRVRKEVDYKDDEDDDIEMT
As to B1, the binding entry is given as “binds”.
